{"source": "patent US9278994B2", "about": "“Short antimicrobial lipopeptides” (Helix BioMedix Inc., priority 2012, dated 2016)", "key": {"[1]": {"test_system": "EpiDerm (EPI-200) skin tissue", "assay": "Skin tissue toxicity, EpiDerm skin model with MTT assay", "format": "cell-based", "conditions": "tissue viability (MTT), treated 20 hr", "method": "4. Skin tissue toxicity determination. Skin toxicity and compatibility was determined using EpiDerm (EPI-200) skin tissue and MTT Kit (MTT-100) (MatTek, Ashland, Mass.) according to the manufacture's instruction. 1% Triton X-100 and PBS were used as positive (toxic) and negative (non-toxic) control, respectively.\nPotential for dermal irritancy of the lipodipeptides was tested using EpiDerm™ Skin Model (MatTek, Ashland, Mass.) in combination with a modified MTT assay. […] EpiDerm™ consists of organized basal, spinous, granular, and cornified layers analogous to those found in vivo. The tissues were treated with each compound at desired concentration for 20 hr."}, "P. acnes ATCC11827": {"test_system": "P. acnes ATCC11827", "assay": "Kill kinetics in PBS", "format": "cell-based, Propionibacterium acnes", "conditions": "detection limit 10 CFU/ml", "method": "(§1) 3. […] The minimal inhibitory concentration (MIC) of each peptide was determined using modified CLSI microtiter broth dilution assay (Methods for Dilution Antimicrobial Susceptibility Tests for Bacteria That Grow Aerobically; Approved Standard—Ninth Edition). An inoculum of 10^5-10^6 colony forming units (CFU)/ml was used or 10^4 CFU/ml for yeast. The MIC value was taken as the lowest peptide concentration at which more than 90% of microbial growth was inhibited after 15 to 20 h of incubation at 37° C. For P. acnes, the incubation was kept under anaerobic condition at 37° C. for 2 weeks before MIC was determined Kill kinetics was performed using a given concentration (about 2-5-fold MIC) of peptide mixed with indicator microorganism. After appropriate dilution the cells were plated on agar plates after defined time intervals and incubated at 37° C. overnight. In the case of P. acnes an extended incubation period was required. The CFU was counted and plotted as survival of bacteria after peptide treatment over time, which indicates the effectiveness of a peptide to kill a microbe."}, "C. albicans 105": {"test_system": "C. albicans 105", "assay": "Kill kinetics in PBS", "format": "cell-based", "conditions": "detection limit 10 CFU/ml"}, "S. aureus SAP0017 (MRSA) [2]": {"test_system": "S. aureus SAP0017 (MRSA)", "format": "cell-based, Staphylococcus aureus", "conditions": "S. aureus in PBS, detection limit 10 CFU/ml", "method": "as §1"}, "[3]": {"test_system": "P. acnes, S. aureus, E. coli and C. albicans", "assay": "MIC / antimicrobial activity", "format": "cell-based", "conditions": "summary of MIC results of Table 1", "method": "2. Bacterial strains and culture conditions. E. coli UB1005, S. aureus SAP0017 (MRSA) and C. albicans 105 were grown in Mueller Hinton (MH) (Difco, BD Biosciences, MD) agar plates and broth (2 g of beef extract, 17.5 g of acid hydrolysis of casein and 1.5 g of starch per liter) at 37° C. unless otherwise indicated. Bacteria from frozen stock were subcultured onto freshly made MH agar plates prior to susceptibility testing. For P. acnes, the bacterium was grown in BBL™ Brain-Heart infusion (Becton, Dickinson & Company, Sparks Md.) broth or agar plates at 37° C. in anaerobic condition generated using a anaerobic jar and AnaeroGen™ (Oxoid, Basingstoke, Hampshire, England).\nas §1"}, "human dermal fibroblasts": {"test_system": "human dermal fibroblasts", "assay": "Gene profiling (PCR array of extracellular matrix adhesion molecule genes)", "format": "cell-based", "conditions": "5 μg/ml, 24 h; up (+) or down (−) regulation", "method": "5. Gene profiling analysis. The 84 genes encoding extracellular matrix adhesion molecules in human dermal fibroblasts were analyzed using PCR arrays conducted by Sunny Biodiscovery, Inc (Santa Paula, Calif.). Human dermal fibroblasts were from Zen-Bio, Research Triangle Park, N.C. (cat. #DF-F, lot #DFMF112410). […] At the end of the incubation cells were observed under the inverted Nikon TS microscope.\nAt the end of the incubation period cells were preserved in RNAlater solution (Ambion, Austin, Tex.) for 6 h. RNA was extracted and purified with NucleoSpin RNA II kit from Machery-Nagel, Bethleem, Pa.). Purified total RNA was assessed at 230 nm, 260 nm and 280 nm with Agilent HP-8452A diode array spectrophotometer. The concentration of RNA was equalized across the samples and the expression of genes of interest was measured by real-time quantitative PCR with BioRad iCycler iQ Detection System using PCR arrays PAHS-013A (www.sabiosciences.com/rt_pcr_product/HTML/PAHS-013A.html), with 1st strand synthesis kit, SYBR Green master mix and PCR running conditions from Qiagen (formerly SA Biosciences). Efficiency ΔΔCt method was used for quantification of results, after the normalization of gene expression to 5 housekeeping genes carried with the RT2 Profiler PCR Array Data Analysis version 3.5 software."}, "S. aureus SAP0017 (MRSA) [4]": {"test_system": "S. aureus SAP0017 (MRSA)", "assay": "Kill kinetics in 10% fetal bovine serum", "format": "cell-based, Staphylococcus aureus"}, "[5]": {"test_system": "P. acnes, S. aureus, E. coli and yeast C. albicans", "assay": "Kill kinetics in PBS as summarised in the text", "format": "cell-based", "conditions": "within 20 min of direct contact in PBS"}}, "note": "Like-named read-outs stand apart in the source and are kept apart here. At least one peptide structure holds a part that was inferred or is arguable (an end, a ring closure or a residue). Some results were stated once for a whole list of compounds, not compound by compound. Where a SMILES comes first, the peptide text is derived from it. The star is where a group is joined. Palmitoyl = CCCCCCCCCCCCCCCC(=O)*"}
{"smiles": "CCCCCCCCCCCCCCCC(=O)N[C@@H](CCCCN)C(=O)N1CCC[C@H]1C(N)=O", "note": "[HB2202, Pal-KP-NH2] (Palmitoyl-Lys-Pro-NH2)", "values": [{"measurement": "Toxicity EpiDerm", "setting": "[1]", "value": "> 2000", "unit": "µg/mL"}, {"measurement": "survival of microbes (CFU/ml), 0 hr", "setting": "P. acnes ATCC11827; 0 hr", "value": 750000, "unit": "CFU/ml"}, {"measurement": "survival of microbes (CFU/ml), 20 min", "setting": "P. acnes ATCC11827; 20 min", "value": "<10", "unit": "CFU/ml"}, {"measurement": "survival of microbes (CFU/ml), 1 hr", "setting": "P. acnes ATCC11827; 1 hr", "value": "<10", "unit": "CFU/ml"}, {"measurement": "survival of microbes (CFU/ml), 2 hr", "setting": "P. acnes ATCC11827; 2 hr", "value": "<10", "unit": "CFU/ml"}, {"measurement": "survival of microbes (CFU/ml), 3 hr", "setting": "P. acnes ATCC11827; 3 hr", "value": "<10", "unit": "CFU/ml"}, {"measurement": "survival of microbes (CFU/ml), 0 hr", "setting": "C. albicans 105; 0 hr", "value": 1300000, "unit": "CFU/ml"}, {"measurement": "survival of microbes (CFU/ml), 20 min", "setting": "C. albicans 105; 20 min", "value": 3000, "unit": "CFU/ml"}, {"measurement": "survival of microbes (CFU/ml), 1 hr", "setting": "C. albicans 105; 1 hr", "value": 150, "unit": "CFU/ml"}, {"measurement": "survival of microbes (CFU/ml), 2 hr", "setting": "C. albicans 105; 2 hr", "value": "<10", "unit": "CFU/ml"}, {"measurement": "survival of microbes (CFU/ml), 3 hr", "setting": "C. albicans 105; 3 hr", "value": "<10", "unit": "CFU/ml"}, {"measurement": "survival of microbes (CFU/ml), 0 hr", "setting": "S. aureus SAP0017 (MRSA) [2]; 0 hr", "value": 23050000, "unit": "CFU/ml"}, {"measurement": "survival of microbes (CFU/ml), 20 min", "setting": "S. aureus SAP0017 (MRSA) [2]; 20 min", "value": "<10", "unit": "CFU/ml"}, {"measurement": "survival of microbes (CFU/ml), 1 hr", "setting": "S. aureus SAP0017 (MRSA) [2]; 1 hr", "value": "<10", "unit": "CFU/ml"}, {"measurement": "survival of microbes (CFU/ml), 2 hr", "setting": "S. aureus SAP0017 (MRSA) [2]; 2 hr", "value": "<10", "unit": "CFU/ml"}, {"measurement": "survival of microbes (CFU/ml), 3 hr", "setting": "S. aureus SAP0017 (MRSA) [2]; 3 hr", "value": "<10", "unit": "CFU/ml"}, {"measurement": "antimicrobial activity (in words)", "setting": "[3]", "value": "novel antimicrobial activity similar to the parent lipotripeptide"}, {"measurement": "Fold change (peptide vs. PBS control) ADAMTS", "setting": "human dermal fibroblasts", "value": 3.8106, "unit": "Fold change"}, {"measurement": "Fold change (peptide vs. PBS control) CDH1", "setting": "human dermal fibroblasts", "value": 1.3566, "unit": "Fold change"}, {"measurement": "Fold change (peptide vs. PBS control) COL1A1", "setting": "human dermal fibroblasts", "value": "−1.0867", "unit": "Fold change"}, {"measurement": "Fold change (peptide vs. PBS control) COL8A1", "setting": "human dermal fibroblasts", "value": 1.4948, "unit": "Fold change"}, {"measurement": "Fold change (peptide vs. PBS control) HAS1", "setting": "human dermal fibroblasts", "value": "−2.395", "unit": "Fold change"}, {"measurement": "Fold change (peptide vs. PBS control) ITGA6", "setting": "human dermal fibroblasts", "value": 1.2658, "unit": "Fold change"}, {"measurement": "Fold change (peptide vs. PBS control) ITGA7", "setting": "human dermal fibroblasts", "value": "−1.815", "unit": "Fold change"}, {"measurement": "Fold change (peptide vs. PBS control) ITGB2", "setting": "human dermal fibroblasts", "value": 2.2038, "unit": "Fold change"}, {"measurement": "Fold change (peptide vs. PBS control) KAL1", "setting": "human dermal fibroblasts", "value": 3.5801, "unit": "Fold change"}, {"measurement": "Fold change (peptide vs. PBS control) MMP1", "setting": "human dermal fibroblasts", "value": 2.362, "unit": "Fold change"}, {"measurement": "Fold change (peptide vs. PBS control) MMP8", "setting": "human dermal fibroblasts", "value": 2.362, "unit": "Fold change"}, {"measurement": "Fold change (peptide vs. PBS control) MMP9", "setting": "human dermal fibroblasts", "value": "−1.2834", "unit": "Fold change"}, {"measurement": "Fold change (peptide vs. PBS control) MMP10", "setting": "human dermal fibroblasts", "value": 2.9079, "unit": "Fold change"}, {"measurement": "Fold change (peptide vs. PBS control) MMP13", "setting": "human dermal fibroblasts", "value": 1.0281, "unit": "Fold change"}, {"measurement": "Fold change (peptide vs. PBS control) MMP14", "setting": "human dermal fibroblasts", "value": "−1.0425", "unit": "Fold change"}, {"measurement": "Fold change (peptide vs. PBS control) SELE", "setting": "human dermal fibroblasts", "value": 2.0562, "unit": "Fold change"}, {"measurement": "Fold change (peptide vs. PBS control) THBS3", "setting": "human dermal fibroblasts", "value": "−1.9453", "unit": "Fold change"}, {"measurement": "survival of microbes (CFU/ml), 0 hr", "setting": "S. aureus SAP0017 (MRSA) [4]; S. aureus in 10% fetal bovine serum, 0 hr", "value": 30900000, "unit": "CFU/ml"}, {"measurement": "survival of microbes (CFU/ml), 2 hr", "setting": "S. aureus SAP0017 (MRSA) [4]; S. aureus in 10% fetal bovine serum, 2 hr", "value": 4850, "unit": "CFU/ml"}, {"measurement": "survival of microbes (CFU/ml), 3 hr", "setting": "S. aureus SAP0017 (MRSA) [4]; S. aureus in 10% fetal bovine serum, 3 hr", "value": 1250, "unit": "CFU/ml"}, {"measurement": "survival of microbes (CFU/ml), 5 hr", "setting": "S. aureus SAP0017 (MRSA) [4]; S. aureus in 10% fetal bovine serum, 5 hr", "value": 110, "unit": "CFU/ml"}, {"measurement": "survival of microbes (CFU/ml), 6 hr", "setting": "S. aureus SAP0017 (MRSA) [4]; S. aureus in 10% fetal bovine serum, 6 hr", "value": 50, "unit": "CFU/ml"}, {"measurement": "killing activity against S. aureus in serum (in words)", "setting": "S. aureus SAP0017 (MRSA) [4]; in the presence of 10% fetal bovine serum", "value": "maintained significant killing activity"}, {"measurement": "logs of microorganisms eradicated", "setting": "[5]", "value": "more than 5 logs"}]}
